{"source": "PubChem BioAssay AID222", "about": "(DTP/NCI, 2004)", "tested_on": "C57BL/6 mice, intracerebral ependymoblastoma, median survival T/C", "test": "NCI In Vivo Anticancer Drug Screen. Data for tumor model Ependymoblastoma (intracerebral) in C57BL/6 mice", "details": "T/C endpoint: median survival time, schedule: Q01DX005 (ip), vehicle: saline, higher T/C = longer survival", "procedure": "The antitumor activity of compounds was measured in mice bearing transplantable tumors. Survival or tumor size were measured and the results are expressed as the measurement made in the treated group (T) divided by the measurement made in the vehicle treated control group (C). The tumor model used in this assay is Ependymoblastoma (intracerebral) in C57BL/6 mice", "note": "The list does not hold the whole screen: its compounds were picked by chemical class. Not every dose and run of a compound is shown. T/C is the treated group as % of the vehicle group. For survival time, this PubChem deposit counts one and a half times the control or more as active, and values a quarter to a half above the control carry no call in these data; other NCI protocols may use other cut-offs. Some T/C values are marked as having no survivor count here; that says nothing about deaths at the dose. Schedules are NCI's codes, taken here to give the interval after Q, in days (D) or hours (H), and the number of doses after X."}
{"compound": "CN(CCCl)CCCl", "values": [{"measurement": "T/C", "setting": "dose: 0.03 mg/kg/injection", "value": "102 % of control [survivor count not shown]"}, {"measurement": "T/C", "setting": "dose: 0.06 mg/kg/injection", "value": "96 % of control [survivor count not shown]"}, {"measurement": "T/C", "setting": "dose: 0.12 mg/kg/injection", "value": "107 % of control [survivor count not shown]"}, {"measurement": "T/C", "setting": "dose: 0.25 mg/kg/injection", "value": "87 % of control [survivor count not shown]"}]}
